Values of other authors, collected in patent US20180027805A1, “ACID HERBICIDE-CONTAINING COMPOSITIONS, PRECURSORS, DERIVATIVES, AND METHODS” (priority 2015, published 2018).
At least one compound was matched to its structure with a doubt left.

Conditions: at 25 C.

Structure (SMILES): CC(C)CCCCCOC(=O)COc1ccc(Cl)cc1Cl [2,4-D Iso-Octyl ester]
- Vapor Pressure: 3.6 × 10−6 mmHg at 25 C.
